No constants are given. Whether binding was seen depends on the method and setting. Some entries that bind do so weakly or less than the wild type. Where a sequence is shown, tags or fusion partners need not be part of it.

Data on 2 molecules can be found in article PMC3988878, “Ultrastructural characterisation of Bacillus subtilis TatA complexes suggests they are too small to form homooligomeric translocation pores” (Biochimica et Biophysica Acta, 2013).

Experiment [1] concerns the target E. coli TatA with a C-terminal Strep-II tag (E. coli) (UniProt P69428). As to the kind of experiment: native gel or EMSA; blue native PAGE (5–13.5% gradient) of membranes solubilised in 2% digitonin, 50 mM Bis–Tris pH 7.0, 750 mM 6-aminocaproic acid; immunoblot for the Strep-II tag. (In EMSA bound probe runs differently from free probe, usually more slowly.)
The target of experiment [2] is B. subtilis TatAc with a C-terminal Strep-II tag (B. subtilis) (UniProt O31804). The description is as above.

B1: E. coli TatA with a C-terminal Strep-II tag (protein, UniProt P69428 1-89)
chain: MGGISIWQLLIIAVIVVLLFGTKKLGSIGSDLGASIKGFKKAMSDDEPKQDKTSQDADFTAKTIADKQADTNQEQAKTEDAKRHDKEQV
On to B1, for which the binding result in experiment [1] is “binds”.

B2: B. subtilis TatAc with a C-terminal Strep-II tag (protein, UniProt O31804 1-62)
chain: MELSFTKILVILFVGFLVFGPDKLPALGRAAGKALSEFKQATSGLTQDIRKNDSENKEDKQM
In the case of B2, the binding result in experiment [2] is reported as “binds”.
